Results are given in words; binding and its absence hold for the method and conditions named. In cells and extracts the contact can be indirect. Here binding means that the protein was enriched with, or labelled near, the bait; the list need not be complete.
How the values were obtained:
Assay in all cases: affinity purification with mass spectrometry; Flag-KRAS (WT or mutant) precipitated from 800 µg of transfected Caco-2 lysate with anti-Flag-M2 magnetic beads (KingFisher), 1 h; washes in RIPA buffer with 150 mM and 500 mM NaCl; elution in 0.1 M glycine pH 3.0; timsTOF Pro, MaxQuant LFQ
KRAS G12V = KRAS G12V (UniProt P01116)
KRAS wildtype = KRAS wildtype (UniProt P01116)
KRAS G12D = KRAS G12D (UniProt P01116)

binding (KRAS G12V): binds | binding (KRAS wildtype): binds | binding (KRAS G12D): binds
B1: RIN2 (protein, UniProt Q8WYP3 1-895)
chain: MTAWTMGARGLDKRGSFFKLIDTIASEIGELKQEMVRTDVNLENGLEPAETHSMVRHKDGGYSEEEDVKTCARDSGYDSLSNRLSILDRLLHTHPIWLQLSLSEEEAAEVLQAQPPGIFLVHKSTKMQKKVLSLRLPCEFGAPLKEFAIKESTYTFSLEGSGISFADLFRLIAFYCISRDVLPFTLKLPYAISTAKSEAQLEELAQMGLNFWSSPADSKPPNLPPPHRPLSSDGVCPASLRQLCLINGVHSIKTRTPSELECSQTNGALCFINPLFLKVHSQDLSGGLKRPSTRTPNANGTERTRSPPPRPPPPAINSLHTSPRLARTETQTSMPETVNHNKHGNVALPGTKPTPIPPPRLKKQASFLEAEGGAKTLSGGRPGAGPELELGTAGSPGGAPPEAAPGDCTRAPPPSSESRPPCHGGRQRLSDMSISTSSSDSLEFDRSMPLFGYEADTNSSLEDYEGESDQETMAPPIKSKKKRSSSFVLPKLVKSQLQKVSGVFSSFMTPEKRMVRRIAELSRDKCTYFGCLVQDYVSFLQENKECHVSSTDMLQTIRQFMTQVKNYLSQSSELDPPIESLIPEDQIDVVLEKAMHKCILKPLKGHVEAMLKDFHMADGSWKQLKENLQLVRQRNPQELGVFAPTPDFVDVEKIKVKFMTMQKMYSPEKKVMLLLRVCKLIYTVMENNSGRMYGADDFLPVLTYVIAQCDMLELDTEIEYMMELLDPSLLHGEGGYYLTSAYGALSLIKNFQEEQAARLLSSETRDTLRQWHKRRTTNRTIPSVDDFQNYLRVAFQEVNSGCTGKTLLVRPYITTEDVCQICAEKFKVGDPEEYSLFLFVDETWQQLAEDTYPQKIKAELHSRPQPHIFHFVYKRIKNDPYGIIFQNGEEDLTTS

Reference: PMC8896392
